Assay results taken from doi:10.1101/2025.05.04.652104.
These are yes or no findings as the source states them, for the method shown. In cells and extracts the contact can be indirect. Binding can be weak; no strength is given.

Amino acid sequences for entries named in this document (tags omitted). A change or cut given only in a name is not applied to a line headed by its entry.
UniProt P00787: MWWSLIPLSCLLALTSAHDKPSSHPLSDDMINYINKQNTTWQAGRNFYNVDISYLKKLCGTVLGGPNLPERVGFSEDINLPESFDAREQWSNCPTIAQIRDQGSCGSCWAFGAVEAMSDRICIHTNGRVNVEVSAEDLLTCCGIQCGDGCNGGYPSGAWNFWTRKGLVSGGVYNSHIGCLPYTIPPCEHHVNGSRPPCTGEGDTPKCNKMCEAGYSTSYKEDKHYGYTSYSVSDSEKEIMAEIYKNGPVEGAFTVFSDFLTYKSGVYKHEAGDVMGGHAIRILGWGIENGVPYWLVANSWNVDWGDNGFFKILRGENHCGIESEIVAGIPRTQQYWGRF

Target: T1, Sialin (in NRK cells) (rat (endogenous in NRK)) (UniProt Q5Q0U0)
T1 sequence: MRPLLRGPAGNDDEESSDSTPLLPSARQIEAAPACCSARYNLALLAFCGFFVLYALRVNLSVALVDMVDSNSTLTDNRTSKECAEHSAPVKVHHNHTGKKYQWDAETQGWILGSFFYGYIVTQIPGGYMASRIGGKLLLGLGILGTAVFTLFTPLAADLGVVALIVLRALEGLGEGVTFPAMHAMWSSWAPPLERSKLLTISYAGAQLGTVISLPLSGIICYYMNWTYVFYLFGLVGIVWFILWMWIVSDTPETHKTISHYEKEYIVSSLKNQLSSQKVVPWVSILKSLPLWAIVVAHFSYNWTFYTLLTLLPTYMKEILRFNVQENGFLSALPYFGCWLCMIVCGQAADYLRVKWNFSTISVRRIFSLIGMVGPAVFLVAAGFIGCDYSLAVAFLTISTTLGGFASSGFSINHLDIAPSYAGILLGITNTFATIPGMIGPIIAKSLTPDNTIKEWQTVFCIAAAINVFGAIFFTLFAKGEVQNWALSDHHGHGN
Test: proximity ligation

Substance: cathepsin B (in NRK cells) (from UniProt P00787) (enzyme)
- binding: binds
